Test results published in article PMC7529893, “Structural basis for substrate recognition and chemical inhibition of oncogenic MAGE ubiquitin ligases” (Nature Communications, 2020).

Sequences of proteins named here, by UniProt entry; tags and fusion partners are left off. A change or cut given only in a name is not applied to a line headed by its entry.
UniProt P43364: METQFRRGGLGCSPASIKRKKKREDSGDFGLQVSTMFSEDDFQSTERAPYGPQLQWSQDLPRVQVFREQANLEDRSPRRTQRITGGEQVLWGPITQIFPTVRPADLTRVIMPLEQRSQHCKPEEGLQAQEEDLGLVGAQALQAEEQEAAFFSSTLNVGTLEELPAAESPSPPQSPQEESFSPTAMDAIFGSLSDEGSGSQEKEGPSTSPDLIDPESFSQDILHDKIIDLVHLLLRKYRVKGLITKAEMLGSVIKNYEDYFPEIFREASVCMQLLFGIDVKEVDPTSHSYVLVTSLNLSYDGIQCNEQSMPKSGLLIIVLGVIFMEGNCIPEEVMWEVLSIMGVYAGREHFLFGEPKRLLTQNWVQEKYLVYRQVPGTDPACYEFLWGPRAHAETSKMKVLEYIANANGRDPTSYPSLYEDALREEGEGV

Biological target: T1, GST-PCF11 (human PCF11 amino acid 637-702) (human) (UniProt O94913)
T1 sequence: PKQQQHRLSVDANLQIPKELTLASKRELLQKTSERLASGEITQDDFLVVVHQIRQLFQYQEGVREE
Experiment: pull-down; purified GST-tagged protein on glutathione Sepharose beads, in vitro translated Myc-tagged protein (rabbit reticulocyte lysate) added; 25 mM Tris pH 8.0, 2.7 mM KCl, 137 mM NaCl, 0.05% Tween-20, 10 mM 2-mercaptoethanol, 5% milk powder; immunoblot anti-Myc; only the target purified

binding	Substance
no binding	Myc-MAGE-A11 N-terminal fragment (human) (domain or fragment)
binds	Myc-MAGE-A11 H231 mutant (in vitro translated) (from UniProt P43364)

No constants are given. Whether binding was seen depends on the method and setting. In cells and extracts the contact can be indirect. Binding calls can cover weak binding; strength is not graded here. Tags and fused reporters may be left off the sequences shown.
